Test results taken from paper PMC9456287.
Results are given in words; binding and its absence hold for the method and conditions named. In cells and extracts the contact can be indirect. Some entries that bind do so weakly or less than the wild type.

Chains of the proteins cited; added tags and fusions are not shown. Lines headed by an entry give the natural chain unless they say otherwise; changes in a name come on top. Residues count along the entry.
UniProt Q8NFJ6: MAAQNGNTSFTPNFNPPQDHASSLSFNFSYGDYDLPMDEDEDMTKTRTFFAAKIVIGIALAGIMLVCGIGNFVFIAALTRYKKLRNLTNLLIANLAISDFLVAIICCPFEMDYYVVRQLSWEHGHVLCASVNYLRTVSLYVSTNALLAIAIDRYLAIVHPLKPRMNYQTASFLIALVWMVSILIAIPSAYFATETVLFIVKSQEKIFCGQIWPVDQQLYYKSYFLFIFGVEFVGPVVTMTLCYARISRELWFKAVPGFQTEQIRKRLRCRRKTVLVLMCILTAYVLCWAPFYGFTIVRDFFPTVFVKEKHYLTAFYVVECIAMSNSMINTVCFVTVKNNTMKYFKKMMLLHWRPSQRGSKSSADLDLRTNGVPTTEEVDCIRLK
GST fusion of the N-terminal region of PKR2: residues 1-69 of Q8NFJ6

How the values were obtained:
[1] = target: PKR2 terminal tagged His (prokineticin receptor 2) (human) (UniProt Q8NFJ6); experiment: pull-down; Ni-NTA His-bind resin co-precipitation (batch, native conditions) of solubilized yeast membrane fractions co-expressing PKR2-His and MRAP2 isoforms; blots with anti-His and anti-MRAP2
[2] = target: GST fusion of the N-terminal region of PKR2 (human) (UniProt Q8NFJ6); experiment: pull-down; R2-GST from E. coli lysate bound to glutathione-Sepharose and washed (buffer A: PBS, 1% Nonidet P 40, 1 mM EDTA), incubated overnight at 4 °C with total membrane extract of yeast expressing MRAP2 isoforms; eluted with GSH; blots with anti-GST and anti-MRAP2; only the target purified

B1: mouse MRAP2 (melanocortin receptor accessory protein 2) (protein, UniProt D3Z1Q2 1-207)
chain: MEMSAQRLASNRTSPQSPSNSDYTWEYEYYEIGPVSFEGLKAHKYSIVIGFWVGLAVFVIFMFFVLTLLTKTGAPHQDNAESSERRFRMNSFVSDFGKPLESDKVFSRQGNEESRSLFHCYINEVEHLDRVKVCHQTTAIDSDVHLQEASRSSGRPEEELARFMKFDIPNFVNTEQSSFGEDDLLISEAPVLLENKPVSQTSRIDLD
[1]
  binding: binds
[2]
  binding: binds

B2: human MRAP2 R125H mutant (protein, UniProt Q96G30 1-205)
chain: MSAQRLISNRTSQQSASNSDYTWEYEYYEIGPVSFEGLKAHKYSIVIGFWVGLAVFVIFMFFVLTLLTKTGAPHQDNAESSEKRFRMNSFVSDFGRPLEPDKVFSRQGNEESRSLFHCYINEVEHLDRAKACHQTTALDSDVQLQEAIRSSGQPEEELNRLMKFDIPNFVNTDQNYFGEDDLLISEPPIVLETKPLSQTSHKDLD
[1]
  binding: binds
[2]
  binding: binds

B3: human MRAP2 R125C mutant (protein, UniProt Q96G30 1-205)
chain: MSAQRLISNRTSQQSASNSDYTWEYEYYEIGPVSFEGLKAHKYSIVIGFWVGLAVFVIFMFFVLTLLTKTGAPHQDNAESSEKRFRMNSFVSDFGRPLEPDKVFSRQGNEESRSLFHCYINEVECLDRAKACHQTTALDSDVQLQEAIRSSGQPEEELNRLMKFDIPNFVNTDQNYFGEDDLLISEPPIVLETKPLSQTSHKDLD
[1]
  binding: binds
[2]
  binding: binds

B4: human MRAP2 (protein, UniProt Q96G30 1-205)
chain: MSAQRLISNRTSQQSASNSDYTWEYEYYEIGPVSFEGLKAHKYSIVIGFWVGLAVFVIFMFFVLTLLTKTGAPHQDNAESSEKRFRMNSFVSDFGRPLEPDKVFSRQGNEESRSLFHCYINEVERLDRAKACHQTTALDSDVQLQEAIRSSGQPEEELNRLMKFDIPNFVNTDQNYFGEDDLLISEPPIVLETKPLSQTSHKDLD
[1]
  binding: binds
